These are yes or no findings as the source states them, for the method shown. Some results given as binding are weak or reduced against the parent protein; the word gives no strength. Values belong to the binder of their own block, whether it stands above or below them.
Assays:
[1] = molecular target: T1, recombinant human factor B (human, UniProt P00751 26-764, biotinylated (EZ-link) in the Octet assay only; sites not stated); experiment: dilution ELISA, factor B coated at 100, 50, 25 and 12.5 ng/well, Fab 0.1-200 nM [upper panel]
T1 construct: also called purified factor B protein

The chains behind the UniProt entries cited, without tags or fusion partners. Where a name states a change or a piece, a line headed by the entry shows the natural chain unless it says otherwise.
UniProt P00751: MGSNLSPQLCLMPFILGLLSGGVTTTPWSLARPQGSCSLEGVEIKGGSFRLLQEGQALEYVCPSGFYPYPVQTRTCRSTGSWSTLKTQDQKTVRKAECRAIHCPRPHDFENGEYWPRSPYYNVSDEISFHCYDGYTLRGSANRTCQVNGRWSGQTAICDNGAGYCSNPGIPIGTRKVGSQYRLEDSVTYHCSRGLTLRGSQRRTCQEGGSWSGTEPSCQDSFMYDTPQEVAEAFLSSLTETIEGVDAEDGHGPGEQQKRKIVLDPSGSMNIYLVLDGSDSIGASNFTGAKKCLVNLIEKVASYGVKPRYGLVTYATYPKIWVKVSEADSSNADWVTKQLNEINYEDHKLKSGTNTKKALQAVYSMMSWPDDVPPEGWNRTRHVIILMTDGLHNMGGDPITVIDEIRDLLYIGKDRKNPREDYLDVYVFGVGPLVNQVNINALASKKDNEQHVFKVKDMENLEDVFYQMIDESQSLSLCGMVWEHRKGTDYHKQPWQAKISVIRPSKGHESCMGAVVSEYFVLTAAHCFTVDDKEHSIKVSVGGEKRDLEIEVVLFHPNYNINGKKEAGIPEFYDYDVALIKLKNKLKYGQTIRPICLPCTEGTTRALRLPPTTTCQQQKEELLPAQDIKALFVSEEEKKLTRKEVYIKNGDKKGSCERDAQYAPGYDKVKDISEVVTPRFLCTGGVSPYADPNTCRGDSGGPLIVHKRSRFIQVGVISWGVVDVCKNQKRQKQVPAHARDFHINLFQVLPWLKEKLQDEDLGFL

[2] = molecular target: T1, recombinant human factor B; experiment: ELISA, factor B coated on plate
[3] = molecular target: T1, recombinant human factor B; experiment: dilution ELISA, factor B coated on plate
[4] = molecular target: T1, recombinant human factor B; experiment: dilution ELISA, factor B coated at 100, 50, 25 and 12.5 ng/well, Fab 0.1-200 nM [lower panel]

binding [1]: binds
binding [2]: binds
binding [3]: binds
B1: cloned Fab' TA003 (Fab, V domains shown)
VH: EVQLQQSGPELVKPGASVKIPCKASGYTFTDYNMDWVKQSHGKSLEWIGDINPNNGGTIYNQKFKGKATLTVDKSSSTAYMELRSLTSEDTAVYYCARGYYSNSAWFAYWGQGTLVTVSA
VL: DIVMSQSPSSLAVSAGEKVTMSCKSSQSLLNSRTRKNYLAWYQQKPGQSPKLLIYWASTRESGVPDRFTGSGSGTDFTLTISSVQAEDLAVYYCKQSYNLPWTFGGGTKLEIKR
notes: No sentence ties the name TA003 to these numbers directly; also called the cloned Fab'; purified Fab' protein (cloned V-regions from the hybridoma producing mAb 1379)

binding [4]: binds
binding [3]: binds
B2: Fab' derived from mAb 1379 by papain digestion (Fab, V domains shown)
VH: B1 VH
VL: B1 VL
notes: Papain fragment of the murine IgG1 kappa hybridoma antibody mAb 1379 (ATCC PTA-6230); also called murine Fab

— patent publication US20130216529A1 (TALIGEN THERAPEUTICS, published 2013)
